Data source: PubChem BioAssay AID1259308 (NCATS, 2017)
Screen: 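Knock-downs that increase output of a recombinant reporter protein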 (primary screen). System: human HEK293 embryonic kidney cells stably expressing firefly luciferase (HEK-CMV-Luc2-Hygro). Reagents: single siRNA against human genes, 0.8 pmol siRNA per well. Timing: 72 h. Read-out: 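Luciferase light (ONE-Glo) measured on one replicate plate set and viability (CellTiter-Glo) on the other, scaled to a negative control siRNA, with robust z-scores and luciferase per cell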. Scale: total luciferase, z-score and total luciferase, % of control: higher = more reporter protein produced; luciferase per cell, z-score: higher = more reporter output per viable cell. Hit rule: 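Active when the median/MAD z-score for overall luciferase is greater than 3; a gene was taken forward for validation with new siRNAs if at least two of its three siRNAs passed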. Calls: active = raised luciferase; inactive = no rise.
The whole screen tested about 59,000 reagents; this is an unselected part. About 1,510 of all reagents (2.6%) were called active. 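Calls use total luciferase alone and ignore viability, so some active siRNAs may act by altering cell number.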 A number with no mark means an inactive call. Reagents against one gene are numbered here. Further read-outs or replicates are left out here.

| gene | reagent | total luciferase, z-score | total luciferase, % of control | luciferase per cell, z-score |
| --- | --- | --- | --- | --- |
| COMMD1 (copper metabolism domain containing 1) | 1 | -0.128 | 79.3 | -0.412 |
| COMMD1 (copper metabolism domain containing 1) | 2 | 2.32 | 128 | 2.07 |
| COMMD1 (copper metabolism domain containing 1) | 3 | 1.59 | 114 | 0.895 |
| SLC17A9 | 1 | -1.42 | 53.6 | -1.17 |
| SLC17A9 | 2 | 0.828 | 98.4 | 0.209 |
| SLC17A9 | 3 | 1.18 | 105 | 0.734 |
| FZD3 (frizzled class receptor 3) | 1 | 0.503 | 91.9 | 0.628 |
| FZD3 (frizzled class receptor 3) | 2 | 1.33 | 108 | 0.25 |
| FZD3 (frizzled class receptor 3) | 3 | -0.794 | 66.1 | -0.865 |
| SLC29A4P1 | 1 | -0.585 | 70.3 | -0.957 |
| SLC29A4P1 | 2 | 0.39 | 89.6 | 0.631 |
| SLC29A4P1 | 3 | -3.04 | 21.5 | -4.05 |
| CYP24A1 (cytochrome P450 family 24 subfamily A member 1) | 1 | 0.239 | 86.6 | 0.0696 |
| CYP24A1 (cytochrome P450 family 24 subfamily A member 1) | 2 | 1.52 | 112 | 1.32 |
| CYP24A1 (cytochrome P450 family 24 subfamily A member 1) | 3 | -0.961 | 62.8 | -1.41 |
| USP22 (ubiquitin specific peptidase 22) | 1 | 1.56 | 113 | 1.47 |
| USP22 (ubiquitin specific peptidase 22) | 2 | -1.9 | 44.2 | -0.742 |
| USP22 (ubiquitin specific peptidase 22) | 3 | -0.0719 | 80.5 | -0.632 |
| SPAST (spastin) | 1 | -1.47 | 52.6 | -2.08 |
| SPAST (spastin) | 2 | -0.228 | 77.4 | -0.647 |
| SPAST (spastin) | 3 | -0.123 | 79.4 | -0.757 |
| ADAMTS9 (ADAM metallopeptidase with thrombospondin type 1 motif 9) | 1 | 0.343 | 88.7 | 0.0654 |
| ADAMTS9 (ADAM metallopeptidase with thrombospondin type 1 motif 9) | 2 | -0.19 | 78.1 | -0.425 |
| ADAMTS9 (ADAM metallopeptidase with thrombospondin type 1 motif 9) | 3 | -0.776 | 66.5 | -1.54 |
| AGMO (alkylglycerol monooxygenase) | 1 | 0.332 | 88.5 | 0.208 |
| AGMO (alkylglycerol monooxygenase) | 2 | -0.0799 | 80.3 | 0.538 |
| AGMO (alkylglycerol monooxygenase) | 3 | 1.01 | 102 | 0.161 |
| ABCA9 (ATP binding cassette subfamily A member 9) | 1 | 0.493 | 91.7 | 0.0799 |
| ABCA9 (ATP binding cassette subfamily A member 9) | 2 | 0.234 | 86.5 | 0.321 |
| ABCA9 (ATP binding cassette subfamily A member 9) | 3 | 1.55 | 113 | 0.531 |
| PNLIPRP1 (pancreatic lipase related protein 1) | 1 | 0.809 | 98 | 0.587 |
| PNLIPRP1 (pancreatic lipase related protein 1) | 2 | 0.203 | 85.9 | 1.37 |
| PNLIPRP1 (pancreatic lipase related protein 1) | 3 | 0.942 | 101 | 0.675 |
| KRTAP5-1 (keratin associated protein 5-1) | 1 | 0.0868 | 83.6 | 0.149 |
| KRTAP5-1 (keratin associated protein 5-1) | 2 | 2.1 | 124 | 1.24 |
| KRTAP5-1 (keratin associated protein 5-1) | 3 | -0.408 | 73.8 | -0.269 |
| CDK19 (cyclin dependent kinase 19) | 1 | -1.07 | 60.7 | -1.48 |
| CDK19 (cyclin dependent kinase 19) | 2 | 3.39 (active) | 149 | 2.54 |
| CDK19 (cyclin dependent kinase 19) | 3 | -2.42 | 33.7 | -2.29 |

Sorted by “total luciferase, % of control” (lowest first): 6 of the entries above
| gene | reagent | total luciferase, z-score | total luciferase, % of control | luciferase per cell, z-score |
| --- | --- | --- | --- | --- |
| FZD3 (frizzled class receptor 3) | 3 | -0.794 | 66.1 | -0.865 |
| SLC29A4P1 | 1 | -0.585 | 70.3 | -0.957 |
| SLC29A4P1 | 2 | 0.39 | 89.6 | 0.631 |
| FZD3 (frizzled class receptor 3) | 1 | 0.503 | 91.9 | 0.628 |
| SLC17A9 | 3 | 1.18 | 105 | 0.734 |
| FZD3 (frizzled class receptor 3) | 2 | 1.33 | 108 | 0.25 |
